Here are results for 1 substance from paper PMC7933254.

Sequences of proteins named here, by UniProt entry; tags and fusion partners are left off.
UniProt Q9HBA0: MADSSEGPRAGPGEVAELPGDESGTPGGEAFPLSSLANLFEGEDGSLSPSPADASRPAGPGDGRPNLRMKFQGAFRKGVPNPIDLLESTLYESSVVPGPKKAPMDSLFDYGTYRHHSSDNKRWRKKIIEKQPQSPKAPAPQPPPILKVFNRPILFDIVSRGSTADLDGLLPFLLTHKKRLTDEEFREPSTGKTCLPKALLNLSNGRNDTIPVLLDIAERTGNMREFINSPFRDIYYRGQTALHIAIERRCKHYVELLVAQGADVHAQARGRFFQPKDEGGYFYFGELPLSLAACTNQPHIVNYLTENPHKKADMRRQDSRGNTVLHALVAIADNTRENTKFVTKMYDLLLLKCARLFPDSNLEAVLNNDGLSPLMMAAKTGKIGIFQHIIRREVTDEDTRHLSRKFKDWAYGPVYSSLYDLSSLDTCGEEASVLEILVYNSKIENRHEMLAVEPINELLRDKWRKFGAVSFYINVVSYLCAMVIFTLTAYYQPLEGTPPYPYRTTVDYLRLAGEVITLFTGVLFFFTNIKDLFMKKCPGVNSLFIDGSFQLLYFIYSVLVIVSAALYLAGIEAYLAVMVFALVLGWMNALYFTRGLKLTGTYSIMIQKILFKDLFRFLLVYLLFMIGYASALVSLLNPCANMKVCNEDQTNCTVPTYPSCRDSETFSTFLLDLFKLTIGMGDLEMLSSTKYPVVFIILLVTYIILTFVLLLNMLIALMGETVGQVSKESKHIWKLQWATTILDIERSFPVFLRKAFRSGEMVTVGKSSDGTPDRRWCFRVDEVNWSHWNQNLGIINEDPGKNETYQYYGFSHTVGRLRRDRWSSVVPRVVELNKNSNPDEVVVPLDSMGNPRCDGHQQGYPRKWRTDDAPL
UniProt P61586: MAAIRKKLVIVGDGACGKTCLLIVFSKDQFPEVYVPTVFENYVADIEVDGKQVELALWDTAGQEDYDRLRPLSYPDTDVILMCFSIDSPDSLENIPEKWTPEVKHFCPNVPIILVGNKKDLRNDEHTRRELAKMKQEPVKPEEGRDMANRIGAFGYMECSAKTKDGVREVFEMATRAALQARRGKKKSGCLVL

No constants are given. Whether binding was seen depends on the method and setting. In cells and extracts the contact can be indirect. These calls come from enrichment with a bait or labelling near it, and not all partners need be listed.

In this assay the target is TRPV4-FLAG (wild type), expressed in HEK293T cells (human) (UniProt Q9HBA0). Nature of the assay: affinity purification with mass spectrometry; HEK293T transfected with FLAG-tagged TRPV4 or empty vector; lysate in IP Lysis Buffer (25 mM Tris-HCl pH 7.4, 150 mM NaCl, 1% NP-40, 1 mM EDTA, 5% glycerol); anti-FLAG affinity gel 2 h, elution with FLAG peptide, LC-MS-MS.

Turning to “endogenous RhoA of HEK293T / T-Rex-TRPV4 cells (from UniProt P61586 1-193)”, the binding result is “binds”.
